We go through one substance from article PMC5589589.

Chains of the proteins cited; added tags and fusions are not shown.
UniProt Q13547: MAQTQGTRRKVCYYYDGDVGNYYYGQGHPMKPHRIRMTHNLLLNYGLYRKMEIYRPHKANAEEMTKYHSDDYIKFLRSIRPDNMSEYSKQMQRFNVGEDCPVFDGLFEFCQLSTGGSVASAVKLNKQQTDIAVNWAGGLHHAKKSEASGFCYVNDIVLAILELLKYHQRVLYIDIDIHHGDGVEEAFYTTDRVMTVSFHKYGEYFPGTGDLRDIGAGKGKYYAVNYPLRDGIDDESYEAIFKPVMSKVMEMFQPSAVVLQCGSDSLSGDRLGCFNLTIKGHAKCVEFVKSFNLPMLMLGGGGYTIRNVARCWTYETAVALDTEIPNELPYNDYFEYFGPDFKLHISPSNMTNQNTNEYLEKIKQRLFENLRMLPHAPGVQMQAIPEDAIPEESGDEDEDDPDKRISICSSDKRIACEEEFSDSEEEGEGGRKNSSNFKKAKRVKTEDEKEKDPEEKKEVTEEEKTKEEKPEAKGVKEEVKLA

The target of this test is T1, zinc finger E-box binding homeobox 1 protein (ZEB1) (human) (UniProt P37275).
T1 sequence: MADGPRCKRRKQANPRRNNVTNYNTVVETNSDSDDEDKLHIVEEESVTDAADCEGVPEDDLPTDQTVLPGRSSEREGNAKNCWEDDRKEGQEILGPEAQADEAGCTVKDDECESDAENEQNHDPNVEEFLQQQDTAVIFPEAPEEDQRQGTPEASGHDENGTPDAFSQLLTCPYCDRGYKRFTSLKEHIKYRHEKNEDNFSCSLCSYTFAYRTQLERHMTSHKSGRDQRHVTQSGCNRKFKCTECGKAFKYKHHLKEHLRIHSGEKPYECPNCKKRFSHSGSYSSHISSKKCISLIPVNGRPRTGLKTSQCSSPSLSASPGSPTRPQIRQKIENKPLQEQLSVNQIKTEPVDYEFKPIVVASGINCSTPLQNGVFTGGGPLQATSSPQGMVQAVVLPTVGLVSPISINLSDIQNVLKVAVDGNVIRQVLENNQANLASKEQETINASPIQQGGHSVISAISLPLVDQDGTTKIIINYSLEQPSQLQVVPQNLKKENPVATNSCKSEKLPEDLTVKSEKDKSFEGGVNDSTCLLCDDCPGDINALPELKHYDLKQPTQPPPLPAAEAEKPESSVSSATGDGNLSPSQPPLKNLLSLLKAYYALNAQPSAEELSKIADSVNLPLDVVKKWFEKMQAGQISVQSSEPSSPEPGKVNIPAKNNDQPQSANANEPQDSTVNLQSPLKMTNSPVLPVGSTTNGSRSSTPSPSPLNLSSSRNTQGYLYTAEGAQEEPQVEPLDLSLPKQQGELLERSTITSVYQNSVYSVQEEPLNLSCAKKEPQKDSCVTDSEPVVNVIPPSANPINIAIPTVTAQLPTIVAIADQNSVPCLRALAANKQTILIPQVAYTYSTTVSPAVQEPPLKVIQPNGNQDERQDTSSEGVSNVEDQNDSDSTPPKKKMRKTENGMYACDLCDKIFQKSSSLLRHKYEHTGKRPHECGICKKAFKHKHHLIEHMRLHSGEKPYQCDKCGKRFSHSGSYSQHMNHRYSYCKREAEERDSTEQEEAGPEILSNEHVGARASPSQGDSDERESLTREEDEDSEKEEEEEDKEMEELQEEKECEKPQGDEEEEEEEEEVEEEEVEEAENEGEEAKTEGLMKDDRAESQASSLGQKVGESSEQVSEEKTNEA
The experiment in a line: co-IP; lysates of ZEB1/231 cells incubated with specific antibodies and Protein G agarose beads at 4°C overnight; washed three times with 50 mM Tris (pH 7.5), 100 mM NaCl, 7.5 mM EGTA, 0.1% Triton X-100.

No constants are given. Whether binding was seen depends on the method and setting. In cells and extracts the contact can be indirect. Some entries that bind do so weakly or less than the wild type.

Take “histone deacetylase 1 (HDAC1) (from UniProt Q13547 1-482)”: the binding entry is “binds”.
